Measured values as given in patent publication US20230313140A1, “METHOD FOR PREPARING T CELLS FOR ADOPTIVE T CELL THERAPY” (St. Jude Children's Research Hospital, Inc., priority 2022, published 2023).
These are yes or no findings as the source states them, for the method shown. In cells and extracts the contact can be indirect. Some binding calls cover weakened binding; strength is not graded here.

Protein sequences, listed by entry. Tags and fused reporters are not part of them. Residues count along the entry.
UniProt Q6NZJ6: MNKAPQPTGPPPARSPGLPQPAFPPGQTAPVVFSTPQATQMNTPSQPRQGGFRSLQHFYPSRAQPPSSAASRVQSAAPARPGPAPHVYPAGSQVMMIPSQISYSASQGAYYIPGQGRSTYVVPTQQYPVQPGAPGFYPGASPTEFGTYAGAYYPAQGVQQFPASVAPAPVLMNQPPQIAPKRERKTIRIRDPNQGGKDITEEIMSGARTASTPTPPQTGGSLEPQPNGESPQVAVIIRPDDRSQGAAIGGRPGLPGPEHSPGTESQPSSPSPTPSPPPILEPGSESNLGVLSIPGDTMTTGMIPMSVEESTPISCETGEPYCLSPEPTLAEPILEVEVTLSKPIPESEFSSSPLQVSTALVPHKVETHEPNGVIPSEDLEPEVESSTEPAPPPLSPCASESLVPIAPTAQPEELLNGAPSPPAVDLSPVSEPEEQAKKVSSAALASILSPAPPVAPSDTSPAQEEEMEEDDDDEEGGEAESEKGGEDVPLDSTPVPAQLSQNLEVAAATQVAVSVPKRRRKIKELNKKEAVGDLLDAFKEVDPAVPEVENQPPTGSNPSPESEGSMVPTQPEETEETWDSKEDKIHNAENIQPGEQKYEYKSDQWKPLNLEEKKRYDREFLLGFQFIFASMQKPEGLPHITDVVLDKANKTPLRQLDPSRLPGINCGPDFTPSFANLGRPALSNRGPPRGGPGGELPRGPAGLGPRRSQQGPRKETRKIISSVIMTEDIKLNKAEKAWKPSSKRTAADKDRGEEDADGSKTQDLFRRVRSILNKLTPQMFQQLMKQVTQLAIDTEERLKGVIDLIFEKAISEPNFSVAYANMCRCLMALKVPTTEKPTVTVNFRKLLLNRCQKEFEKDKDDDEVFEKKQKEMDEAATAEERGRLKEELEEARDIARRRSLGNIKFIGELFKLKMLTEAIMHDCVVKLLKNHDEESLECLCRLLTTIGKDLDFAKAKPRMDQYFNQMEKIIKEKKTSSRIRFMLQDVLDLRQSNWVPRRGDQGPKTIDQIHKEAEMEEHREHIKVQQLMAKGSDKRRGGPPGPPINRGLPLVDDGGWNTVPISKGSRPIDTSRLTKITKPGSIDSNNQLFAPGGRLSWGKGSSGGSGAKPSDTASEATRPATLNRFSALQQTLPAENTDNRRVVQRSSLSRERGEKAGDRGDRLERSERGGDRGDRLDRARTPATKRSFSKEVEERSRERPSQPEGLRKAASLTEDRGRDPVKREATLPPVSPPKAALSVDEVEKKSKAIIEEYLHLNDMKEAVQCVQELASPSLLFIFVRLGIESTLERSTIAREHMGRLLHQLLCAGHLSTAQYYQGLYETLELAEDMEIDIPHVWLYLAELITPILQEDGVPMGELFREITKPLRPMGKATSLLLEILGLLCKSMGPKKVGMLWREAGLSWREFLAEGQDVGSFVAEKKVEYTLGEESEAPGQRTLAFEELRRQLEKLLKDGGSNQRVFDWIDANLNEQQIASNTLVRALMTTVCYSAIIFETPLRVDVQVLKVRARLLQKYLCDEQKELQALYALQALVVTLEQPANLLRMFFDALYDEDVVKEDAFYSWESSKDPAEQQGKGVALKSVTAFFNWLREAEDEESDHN
UniProt P60843, residues 2-406: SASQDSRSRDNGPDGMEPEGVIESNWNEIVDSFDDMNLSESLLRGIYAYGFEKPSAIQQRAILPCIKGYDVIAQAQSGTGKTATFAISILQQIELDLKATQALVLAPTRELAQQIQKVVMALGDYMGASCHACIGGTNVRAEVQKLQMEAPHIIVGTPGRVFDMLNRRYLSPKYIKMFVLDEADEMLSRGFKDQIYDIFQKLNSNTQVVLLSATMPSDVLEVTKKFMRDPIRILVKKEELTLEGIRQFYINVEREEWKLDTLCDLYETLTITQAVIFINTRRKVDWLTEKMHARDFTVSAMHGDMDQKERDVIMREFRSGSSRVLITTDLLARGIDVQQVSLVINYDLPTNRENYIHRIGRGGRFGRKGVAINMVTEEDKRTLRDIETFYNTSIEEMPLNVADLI

Target: eukaryotic translation initiation factor 4GI (eIF4GI), endogenous, from murine CD8+ T cells (mouse) (UniProt Q6NZJ6)
Assay: co-immunoprecipitation from lysates of activated murine CD8+ T cells, western blot; interaction reduced after brief mTOR inhibition (Torin)

**Q.** “eukaryotic initiation factor-4A (eIF4A), endogenous, from murine CD8+ T cells (from UniProt P60843 2-406) (enzyme)” was tested. Which binding did it give?
**A.** binds
